Data as given in the supplement of paper PMC6078165.

Tested on: Hs578T
Test: relative JC-1 red fluorescence (viability) vs pre-drug, coculture with fibroblast (fraction); higher = more viable cancer cells
Experimental: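 JC-1 labelled TNBC cells cocultured 1:1 (1,500 cells each) with CellTrace Violet stained primary or stromal fibroblasts in 384-well plates in FluoroBrite medium, treated with one of 42 anticancer drugs at 0.1, 1, 10 or 100 uM. JC-1 red fluorescence (mitochondrial integrity in cancer cells only) was read by plate reader every 8 h for 72 h. Values are normalised to each well's pre-drug value. The stock of one drug was tenfold lower, so its dose labels may be too high.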

Nc1ccn([C@@H]2O[C@H](CO)[C@@H](O)C2(F)F)c(=O)n1 [Gemcitabine]
relative JC-1 red fluorescence
Conditions	8 h	16 h	24 h	32 h	40 h	48 h	56 h	64 h	72 h
0.1 µM	0.88681	0.759	0.698	0.66	0.591	0.551	0.534	0.503	0.509
1 µM	0.88	0.741	0.681	0.647	0.59	0.553	0.55	0.521	0.519
10 µM	0.9015	0.775	0.716	0.681	0.616	0.582	0.561	0.525	0.5204
100 µM	0.926	0.801	0.737	0.688	0.628	0.586	0.573	0.546	0.542

relative JC-1 red fluorescence
Conditions	8 h	16 h	24 h	32 h	40 h	48 h	56 h	64 h	72 h
0.1 µM, coculture fibroblast: C12385	0.8296	0.6902	0.636	0.547	0.4819	0.4446	0.415	0.409	0.409
0.1 µM, coculture fibroblast: H6013	0.8941	0.79	0.749	0.728	0.689	0.682	0.669	0.668	0.646
0.1 µM, coculture fibroblast: H6019	0.791	0.666	0.646	0.5372	0.493	0.46	0.434	0.415	0.401
0.1 µM, coculture fibroblast: H6076	0.9222	0.827	0.7593	0.724	0.664	0.64	0.601	0.584	0.574
0.1 µM, coculture fibroblast: H6231	0.9089	0.8362	0.73	0.688	0.615	0.583	0.526	0.5	0.477
0.1 µM, coculture fibroblast: HADF	0.899	0.793	0.726	0.68	0.642	0.621	0.59	0.588	0.568
0.1 µM, coculture fibroblast: HCFa	0.9216	0.8433	0.794	0.763	0.7073	0.6953	0.6683	0.646	0.612
0.1 µM, coculture fibroblast: HCPF	0.927	0.821	0.763	0.722	0.653	0.624	0.588	0.549	0.519
0.1 µM, coculture fibroblast: HHSteC	0.952	0.838	0.803	0.755	0.694	0.662	0.619	0.601	0.559
0.1 µM, coculture fibroblast: HMF	0.881	0.773	0.717	0.695	0.625	0.591	0.554	0.532	0.517
0.1 µM, coculture fibroblast: HPFa	0.9173	0.818	0.732	0.673	0.615	0.575	0.541	0.526	0.486
0.1 µM, coculture fibroblast: HUF	0.87	0.761	0.669	0.559	0.48	0.434	0.393	0.381	0.371
0.1 µM, coculture fibroblast: Hs27A	0.883	0.801	0.72	0.655	0.603	0.582	0.548	0.537	0.507
0.1 µM, coculture fibroblast: Hs343T	0.953	0.821	0.759	0.731	0.654	0.623	0.567	0.541	0.529
0.1 µM, coculture fibroblast: WS1	0.809	0.67	0.607	0.504	0.444	0.427	0.396	0.3995	0.401
1 µM, coculture fibroblast: C12385	0.831	0.695	0.662	0.56	0.504	0.4799	0.4554	0.4632	0.4662
1 µM, coculture fibroblast: H6013	0.859	0.7938	0.7489	0.706	0.6509	0.6326	0.6032	0.5954	0.5767
1 µM, coculture fibroblast: H6019	0.7621	0.642	0.609	0.5	0.449	0.419	0.384	0.37	0.346
1 µM, coculture fibroblast: H6076	0.909	0.7709	0.739	0.717	0.657	0.634	0.604	0.591	0.587
1 µM, coculture fibroblast: H6231	0.923	0.842	0.742	0.704	0.628	0.587	0.5433	0.5109	0.4939
1 µM, coculture fibroblast: HADF	0.88	0.774	0.727	0.68	0.632	0.603	0.562	0.549	0.518
1 µM, coculture fibroblast: HCFa	0.864	0.818	0.764	0.707	0.649	0.626	0.589	0.5733	0.5376
1 µM, coculture fibroblast: HCPF	0.8838	0.7861	0.751	0.717	0.655	0.625	0.606	0.563	0.542
1 µM, coculture fibroblast: HHSteC	0.897	0.799	0.746	0.697	0.637	0.605	0.575	0.545	0.515
1 µM, coculture fibroblast: HMF	0.895	0.783	0.74	0.716	0.663	0.625	0.593	0.566	0.546
1 µM, coculture fibroblast: HPFa	0.929	0.817	0.748	0.69	0.639	0.604	0.559	0.54	0.504
1 µM, coculture fibroblast: HUF	0.867	0.727	0.678	0.566	0.51	0.463	0.432	0.424	0.419
1 µM, coculture fibroblast: Hs27A	0.865	0.806	0.775	0.756	0.708	0.7089	0.6792	0.683	0.651
1 µM, coculture fibroblast: Hs343T	0.904	0.765	0.7136	0.6905	0.615	0.577	0.539	0.51	0.5
1 µM, coculture fibroblast: WS1	0.7826	0.685	0.626	0.523	0.463	0.4422	0.416	0.416	0.4182
10 µM, coculture fibroblast: C12385	0.829	0.691	0.612	0.54	0.47	0.422	0.383	0.353	0.337
10 µM, coculture fibroblast: H6013	0.925	0.841	0.8161	0.7936	0.757	0.75	0.733	0.743	0.721
10 µM, coculture fibroblast: H6019	0.777	0.687	0.632	0.54	0.489	0.457	0.425	0.409	0.396
10 µM, coculture fibroblast: H6076	0.91	0.8409	0.771	0.745	0.694	0.679	0.638	0.623	0.618
10 µM, coculture fibroblast: H6231	0.917	0.816	0.749	0.7	0.627	0.596	0.543	0.513	0.4882
10 µM, coculture fibroblast: HADF	0.9006	0.805	0.747	0.707	0.667	0.637	0.6	0.584	0.555
10 µM, coculture fibroblast: HCFa	0.876	0.764	0.691	0.634	0.564	0.541	0.512	0.5	0.476
10 µM, coculture fibroblast: HCPF	0.937	0.829	0.778	0.745	0.68	0.655	0.623	0.574	0.542
10 µM, coculture fibroblast: HHSteC	0.909	0.793	0.749	0.706	0.658	0.628	0.603	0.577	0.551
10 µM, coculture fibroblast: HMF	0.898	0.796	0.7247	0.6958	0.6319	0.5982	0.5625	0.5323	0.5065
10 µM, coculture fibroblast: HPFa	0.9094	0.803	0.722	0.639	0.577	0.537	0.489	0.468	0.425
10 µM, coculture fibroblast: HUF	0.895	0.746	0.722	0.6274	0.562	0.523	0.491	0.485	0.472
10 µM, coculture fibroblast: Hs27A	0.909	0.843	0.795	0.7499	0.7052	0.6915	0.657	0.648	0.604
10 µM, coculture fibroblast: Hs343T	0.9325	0.802	0.716	0.677	0.591	0.549	0.491	0.458	0.436
10 µM, coculture fibroblast: WS1	0.8169	0.687	0.598	0.498	0.43	0.398	0.357	0.333	0.317
100 µM, coculture fibroblast: C12385	0.827	0.718	0.685	0.599	0.543	0.51	0.487	0.472	0.458
100 µM, coculture fibroblast: H6013	0.892	0.781	0.739	0.691	0.625	0.596	0.557	0.546	0.53
100 µM, coculture fibroblast: H6019	0.769	0.652	0.601	0.503	0.454	0.427	0.405	0.401	0.392
100 µM, coculture fibroblast: H6076	0.908	0.811	0.78	0.76	0.71	0.695	0.679	0.659	0.658
100 µM, coculture fibroblast: H6231	0.91	0.835	0.767	0.727	0.654	0.622	0.572	0.543	0.532
100 µM, coculture fibroblast: HADF	0.9004	0.812	0.742	0.69	0.626	0.593	0.552	0.534	0.497
100 µM, coculture fibroblast: HCFa	0.884	0.807	0.8	0.757	0.71	0.696	0.674	0.674	0.647
100 µM, coculture fibroblast: HCPF	0.926	0.842	0.788	0.762	0.689	0.66	0.63	0.57855	0.5509
100 µM, coculture fibroblast: HHSteC	0.917	0.783	0.707	0.644	0.572	0.527	0.497	0.47	0.43
100 µM, coculture fibroblast: HMF	0.9154	0.82	0.774	0.754	0.692	0.665	0.622	0.593	0.563
100 µM, coculture fibroblast: HPFa	0.948	0.8611	0.7898	0.739	0.693	0.662	0.625	0.603	0.574
100 µM, coculture fibroblast: HUF	0.853	0.735	0.685	0.575	0.517	0.477	0.444	0.427	0.424
100 µM, coculture fibroblast: Hs27A	0.882	0.83	0.753	0.704	0.634	0.609	0.567	0.548	0.502
100 µM, coculture fibroblast: Hs343T	0.925	0.798	0.768	0.749	0.685	0.656	0.612	0.581	0.567
100 µM, coculture fibroblast: WS1	0.814	0.706	0.641	0.54	0.475	0.45463	0.4219	0.4133	0.403

Values are relative to the signal before dosing, not to a vehicle control; the signal also falls without drug.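 Labels refer to human fibroblasts, largely primary: uterine (C12385, HUF), lung (H6013), bone (Hs27A), adrenal (HADF), skin (WS1), plus mammary HMF and breast cancer-associated Hs343T. Cancer lines are basal-like or mesenchymal-like triple-negative breast cancer. The paper counts as hits responses shifting over 3x the replicate standard deviation. The tissue of the other fibroblasts is not given here.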
